Values from PubChem BioAssay AID652272 (Drosophila RNAi Screening Center, 2013).
The screen tested about 21,000 reagents; below is an unselected part of those with a known target gene and a result. Of all reagents, 503 (2.4%) got an active call. 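Raw plate light values, not normalised; calls rest on replicate z-scores that were not deposited; hits include reporter decreases as well as increases.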 Unmarked entries are inactive. Not given: the amount of reagent, the time to read-out.

- Test: 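Finding fly genes that regulate Hedgehog signal transduction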 (primary screen)
- Cell system: Drosophila clone 8 (Cl8) cells
- Knock-down reagent: long dsRNA against Drosophila genes
- Measured: 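Plate reader light from a firefly reporter under a ptc promoter fragment that responds to Hedgehog, with Renilla light as transfection reference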
- Direction: firefly Hh reporter signal: higher = more ptc reporter light; Renilla reference signal: higher = more Renilla control light
- Hit rule: 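Hit when the z-score averaged over two replicates is under -2 or over +3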
- Calls: active = hit: reporter lowered or raised; inactive = not a hit

gene	PubChem SID	firefly Hh reporter signal, replicate 1	firefly Hh reporter signal, replicate 2	firefly Hh reporter signal, replicate 3	Renilla reference signal, replicate 1	Renilla reference signal, replicate 2
RpL7-like (Ribosomal protein L7-like)	SID104182628	86325	4.28e5	42566	2827	31213
CG17568	SID104182420	1.06e5	5.36e5	82365	2568	30321
CG33552	SID104181343	1.22e5	2.62e5		2705	9632
CG2162	SID104188349	74918	68048		2903	2519
CG16787	SID104184074	1.11e5	70309		3141	6064
CG4250	SID104184247	1.08e5	55271		2889	4964
CG17778	SID104198296	90148	2.23e5		3328	10016
SppL (Signal peptide peptidase-like)	SID104195020	5.66e5	86260		28880	2416
CG4554	SID104184265	55155	57184		2284	2657
CG6418	SID104190425	70493	81570		2250	3236
NaPi-III (Na[+]-dependent inorganic phosphate cotransporter type III)	SID104190685	47081	79251		2307	3100
NaPi-III (Na[+]-dependent inorganic phosphate cotransporter type III)	SID104190686	32384	22320	15584	2492	1429
anne (anne boleyn)	SID104196895	3.04e5	1.26e5		16281	2936
bmm (brummer)	SID104190294	1.47e5	96581		5524	3875
Wdr81 (WD repeat domain 81)	SID104182777	63200	48704		3073	2400
cert (ceramide transfer protein)	SID104189466	75563	53405		3706	2304
Ae2 (Anion exchanger 2)	SID104188789	5.03e5	75734		3686	3686
Ae2 (Anion exchanger 2)	SID104190761	1.19e5	73640		4691	2482
RhoGEF4 (Rho guanine nucleotide exchange factor 4)	SID104190803	83605	69500		3995	2976
CG8399	SID104186955	1.05e5	62112		4725	2822
Ank2 (Ankyrin 2)	SID104188686	1.22e5	2.55e5		2981	8969
Ank2 (Ankyrin 2)	SID104189458	59232	67451		4672	4720
Ank2 (Ankyrin 2)	SID104190130	59640	54121		4993	4164
Ank2 (Ankyrin 2)	SID104191070	69387	45984		5472	3340
ema (endosomal maturation defective)	SID104194328	1.01e5	1.14e5		2770	930
Rpt6 (Regulatory particle triple-A ATPase 6)	SID104200363	68264 (active)	84508		2246	3069
CG4612	SID104184270	80487	39829		3019	1601
BHD (Birt-Hogg-Dube)	SID104190809	1.51e5	1.30e5		6544	5037
cGlr1 (cGAS-like receptor 1)	SID104186062	73219	48883		870	3309
CG15468	SID104197843	77114	1.82e5		2952	6849
Gbp3 (Growth-blocking peptide 3)	SID104194998	5.50e5	73508		28490	2520
Dnah3 (dynein, axonemal, heavy chain 3)	SID104187922	1.39e5	3.48e5		4117	13954
Dnah3 (dynein, axonemal, heavy chain 3)	SID104188305	39691	72605		4341	5152
InR (Insulin-like receptor)	SID104196509	7.95e5	1.70e5		39105	2765
CG17329	SID104181718	1.04e5	69321		2762	6244
Ptp99A (Protein tyrosine phosphatase 99A)	SID104193725	2129	6.38e5	2.79e5	705	4520
Ptp99A (Protein tyrosine phosphatase 99A)	SID104193731	55536	3.13e5		13962	7495
Ptp99A (Protein tyrosine phosphatase 99A)	SID104194111	69298	90999		2230	2640
Ptp99A (Protein tyrosine phosphatase 99A)	SID104194112	1.01e5	90274		2475	2133
Ptp99A (Protein tyrosine phosphatase 99A)	SID104196595	1.02e5	1.15e5		2589	2370
ND-B12 (NADH dehydrogenase (ubiquinone) B12 subunit)	SID104183852	73312	53600		1741	4628
slp2 (sloppy paired 2)	SID104180628	1.72e5	55101		4374	5852
Acp62F (Accessory gland protein 62F)	SID104187928	55719	29577		1755	2240
Nmt (N-myristoyl transferase)	SID104191028	50804	71321		2032	5496
AIMP1 (aaRS-interacting multifunctional protein 1)	SID104186910	1.06e5	83082		2472	6266
Sgf11 (SAGA associated factor 11kDa)	SID104189779	1.21e5			5049	3543
CG17110	SID104194965	5.97e5	1.17e5		30203	3458
Dscam1 (Down syndrome cell adhesion molecule 1)	SID104184839	1.36e5	2.64e5		3644	12428
Dscam1 (Down syndrome cell adhesion molecule 1)	SID104184840	1.26e5	2.66e5		3507	11257
Dscam1 (Down syndrome cell adhesion molecule 1)	SID104187199	89180	45307		2074	3559
CG8958	SID104199926	63824	1.48e5		1440	6641
MFS15 (Major Facilitator Superfamily Transporter 15)	SID104186315	76011	40641		1835	1270
udd (under-developed)	SID104186512	78073	41339		1767	3280
CG40948 (retired record)	SID104200736	4.72e5	1.62e5		27649	3234
drpr (draper)	SID104187935	62209	35968		2273	2485
drpr (draper)	SID104188317	65088	42733		2034	3152
Rab6	SID104183196	72709	44642		3787	2360

7 of these entries in another layout:
gene | PubChem SID | firefly Hh reporter signal, replicate 1 | firefly Hh reporter signal, replicate 2 | firefly Hh reporter signal, replicate 3 | Renilla reference signal, replicate 1 | Renilla reference signal, replicate 2
NaPi-III (Na[+]-dependent inorganic phosphate cotransporter type III) | SID104190685 | 47081 | 79251 | – | 2307 | 3100
NaPi-III (Na[+]-dependent inorganic phosphate cotransporter type III) | SID104190686 | 32384 | 22320 | 15584 | 2492 | 1429
anne (anne boleyn) | SID104196895 | 3.04e5 | 1.26e5 | – | 16281 | 2936
bmm (brummer) | SID104190294 | 1.47e5 | 96581 | – | 5524 | 3875
Wdr81 (WD repeat domain 81) | SID104182777 | 63200 | 48704 | – | 3073 | 2400
cert (ceramide transfer protein) | SID104189466 | 75563 | 53405 | – | 3706 | 2304
Ae2 (Anion exchanger 2) | SID104188789 | 5.03e5 | 75734 | – | 3686 | 3686
